# Experimental data: PubChem BioAssay AID1259254 (NCATS, 2017)
# Aim: 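Genome-wide screen for genes that prevent DNA re-replication in cancer cells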 (primary screen)
# System: human HCT116 colorectal cancer cells
# Reagents: single siRNA against human genes
# Time to read-out: 3 days
# Read-out: 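Imaged Hoechst DNA stain sorts each cell into a cycle phase by DNA amount; per plate, G2 fraction set to 0% for non-targeting and 100% for GMNN siRNA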
# Direction: G2 robust z-score and G2 cells, % of GMNN control: higher = more G2 cells, more excess DNA replication; raw share of cells in G2: higher = larger share of cells with G2 DNA content
# Hit rule: 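An siRNA counts as active if its G2 robust z-score lies at least 5 MADs above the screen median; here such calls match roughly 38% of GMNN control or more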
# Here is a random part of about 59,000 deposited reagents. About 1,550 of them (2.6%) count as active. 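G2 share is only a proxy for re-replication; each gene was hit by three separate siRNAs, and active genes were retested.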 Raw values vary from plate to plate and are shown uncorrected. No sequences are given here. Not stated in the record: the amount of reagent.
target gene,PubChem SID,G2 robust z-score,"G2 cells, % of GMNN control",raw share of cells in G2 (%),Outcome
KRT10-AS1,SID160758488,-0.628,-1.45,3.34,inactive
KRT10-AS1,SID160758489,2.6,21.3,9.49,inactive
KRT10-AS1,SID160758490,2.44,20.2,10.1,inactive
SSTR1,SID160717399,0.27,4.87,7.58,inactive
SSTR1,SID160717400,-1.18,-5.37,2.64,inactive
SSTR1,SID160717401,-0.514,-0.648,3.07,inactive
ANKRD34C,SID160766542,-0.538,-0.818,3.49,inactive
ANKRD34C,SID160766543,0.634,7.43,6.64,inactive
ANKRD34C,SID160766544,1.22,11.6,9.59,inactive
MAPKAPK5,SID160720316,-0.157,1.86,6.17,inactive
MAPKAPK5,SID160720317,0.0441,3.28,6.38,inactive
MAPKAPK5,SID160720318,-0.589,-1.17,3.31,inactive
LDB1,SID160720994,-0.967,-3.83,3.43,inactive
LDB1,SID160720995,1.12,10.8,8.19,inactive
LDB1,SID160720996,2.06,17.5,9.53,inactive
RIPK3,SID160729795,-0.202,1.54,6.07,inactive
RIPK3,SID160729796,0.221,4.52,6.84,inactive
RIPK3,SID160729797,-1.12,-4.91,2.11,inactive
SLC1A3,SID160716786,3.45,27.2,13.9,inactive
SLC1A3,SID160716787,0.305,5.11,7.4,inactive
SLC1A3,SID160716788,6.99,52.2,21.2,active
MTPN,SID160732487,0.797,8.58,5.69,inactive
MTPN,SID160757476,0.0663,3.43,5.47,inactive
MTPN,SID160757477,0.212,4.46,4.52,inactive
CUX1,SID160750862,-0.577,-1.09,4.57,inactive
CUX1,SID160750872,1.81,15.7,10.7,inactive
CUX1,SID160750884,0.573,7,6.51,inactive
STAMBPL1,SID160746270,-0.737,-2.22,4.73,inactive
STAMBPL1,SID160746271,0.253,4.74,5.95,inactive
STAMBPL1,SID160746272,-1.62,-8.4,1.38,inactive
TAFA1,SID160767562,2.73,22.2,11.9,inactive
TAFA1,SID160767563,0.554,6.86,6.24,inactive
TAFA1,SID160767564,-1.01,-4.15,3.07,inactive
GPR173,SID160772381,7.27,54.1,25.2,active
GPR173,SID160772467,-1.18,-5.34,2.65,inactive
GPR173,SID160772553,-1.12,-4.91,1.76,inactive
EIF4H,SID160718809,1.69,14.9,11.9,inactive
EIF4H,SID160718810,-1.19,-5.41,2.25,inactive
EIF4H,SID160731877,9.67,71,27.9,active
SLURP1,SID160714724,-0.388,0.237,4.44,inactive
SLURP1,SID160714830,-0.551,-0.908,4.03,inactive
SLURP1,SID160724486,-0.428,-0.0419,3.02,inactive
GPR156,SID160760183,-0.0677,2.49,6.73,inactive
GPR156,SID160760184,0.388,5.7,6.51,inactive
GPR156,SID160760185,-0.572,-1.05,2.95,inactive
GRIN3B,SID160755424,-0.917,-3.48,4.02,inactive
GRIN3B,SID160755425,2.82,22.8,12.5,inactive
GRIN3B,SID160755426,0.337,5.34,6.46,inactive
CATSPERD,SID160762511,0.348,5.42,5.54,inactive
CATSPERD,SID160762512,0.861,9.02,6.22,inactive
CATSPERD,SID160762513,1.13,10.9,6.68,inactive
MCCC1,SID160745302,-1.15,-5.14,4.18,inactive
MCCC1,SID160745305,6.74,50.4,22.5,active
MCCC1,SID160745306,0.456,6.18,6.91,inactive
FIGLA,SID160764746,0.475,6.31,8.63,inactive
FIGLA,SID160764747,-1.5,-7.6,1.51,inactive
FIGLA,SID160764749,0.134,3.91,6.49,inactive
AP1B1,SID160715233,0.165,4.13,5.1,inactive
AP1B1,SID160715245,0.0212,3.12,6.31,inactive
AP1B1,SID160715254,0.32,5.22,5,inactive
KCNV1,SID160738244,4.52,34.8,18,inactive
KCNV1,SID160738245,-0.121,2.12,5.5,inactive
KCNV1,SID160738246,1.05,10.3,8.41,inactive
SYT2,SID160756682,0.112,3.75,4.38,inactive
SYT2,SID160756683,0.0418,3.26,4.3,inactive
SYT2,SID160756684,5.17,39.3,17.3,active
ACOT11,SID160724338,2.3,19.1,10.2,inactive
ACOT11,SID160737481,1,10,10.7,inactive
ACOT11,SID160737482,5.65,42.7,18.4,active

Records listed so far whose gene name starts with T or t (3):
target gene,PubChem SID,G2 robust z-score,"G2 cells, % of GMNN control",raw share of cells in G2 (%),Outcome
TAFA1,SID160767562,2.73,22.2,11.9,inactive
TAFA1,SID160767563,0.554,6.86,6.24,inactive
TAFA1,SID160767564,-1.01,-4.15,3.07,inactive
